PubChem BioAssay AID1347426 (Functional Genomics Laboratory (NCATS/FGL), 2020)
Among all 31,000 sequences or so, about 1,400 (4.5%) were called active.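 The calls were made as follows: active = median seed-adjusted z-score above 1 or below -1; inactive = the rest.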 The list shows a part of the results.

Test: Novel Modifiers of Survival Motor Neuron (SMN) Protein: Gene Identification via Genome-wide siRNA Screen;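 also: luminescence tracks full-length SMN protein made from the SMN2 reporter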
Settings: HEK293T SMN2-luciferase reporter, siRNA knockdown, 72 h; actives lie on both sides
Summary of the method: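 HEK293T cells stably carrying an SMN2 promoter/splicing cassette–luciferase reporter were reverse-transfected with 1 pmol siRNA per well (druggable-genome library, 3 siRNAs per gene) and grown 72 h at 37 °C. Luminescence, normalized to negative-control siRNA and log10-transformed, was scored as MAD.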

| Sequence | median seed-adjusted z-score |
| --- | --- |
| GAGUGUAUGGUGUUACGUATT against USP16 | inactive: -0.173 |
| GGAGAAUUCAAUACCUUAATT against LCTL | inactive: -0.0821 |
| CCGACAGUGUCACCAGUAATT against RAET1E | inactive: -0.616 |
| CCAGAUUGCUAGUAUCUCATT against TRAK1 | inactive: 0.298 |
| CUCUCCACCUGAUUACAGATT against TKTL1 | inactive: -0.495 |
| GGGAUGCUCUAUUCUGGUATT against SEMA4A | inactive: 0.0377 |
| CCCUCGUAUUUACAACAAATT against CUL5 | inactive: 0.0143 |
| GCAUGAAUGCUUUACAGUUTT against CUGBP2 | inactive: -0.532 |
| CAUACAUGUUGCUAACCAATT against PCDH12 | inactive: 0.0177 |
| CAGCAGCAAGUGUCCCAAATT against CCL2 | inactive: 0.651 |
| CUGGAAUAAUCAUAAGAAATT against EDN1 | inactive: 0.0717 |
| UCUCUCCUAUGGAAACAAATT against GZMH | inactive: 0.946 |
| GGAACUACGGCGAUAUCUATT against MICA | inactive: -0.0635 |
| GCAUAGAACCAGUCAAUGATT against PGBD1 | inactive: 0.925 |
| GGACAAGGGAUUAAUAGUATT against ARID1A | active: -1.14 |
| GGACAUCGGGAAGAACAUUTT against NOB1 | inactive: -0.0844 |
| CCAAUCUUCUGGACUUUGATT against FTCD | inactive: -0.27 |
| CCUAAAUUCUGUCACGGUATT against GLG1 | inactive: 0.308 |
| GGAAGUAAUAAGAUUGAAATT against RXFP1 | inactive: 0.314 |
| GCACCAACAUCUACGAGCATT against CDH23 | inactive: -0.918 |
| GGAGUAAAGCUGUUGAAGATT against LRRIQ1 | inactive: 0 |
| CCUUUUUCUGCUUCACCAATT against TBC1D13 | inactive: 0.33 |
| CCACAAUACUUUCGUAUGATT against DCHS2 | inactive: 0 |

| Sequence | median seed-adjusted z-score |
| --- | --- |
| CUCUGGAUCCUGAUCAGUUTT against SLC46A2 | inactive: 0 |
| CUUGCAAAAUGUACACGAATT against AS3MT | inactive: -0.74 |
| AUCCUGAAGUGAAUCCCUATT against ZNF273 | inactive: 0.0489 |
| AGAUUGAGGAUUUACAAGATT against CHMP5 | inactive: 0 |
| GCACUCCCUCUACACCACATT against SIPA1 | inactive: -0.0872 |
| CAUCCCGUCUCAUUAAACATT against ZNF417 | inactive: 0.0205 |
| ACAACUUCAUAUCCAGCUUTT against ISLR2 | inactive: 0.263 |
| GCCCAACAGUCAUUCAACATT against CHMP5 | inactive: 0 |
| CAAUACCCUGAAUUCGAAATT against DSG2 | inactive: -0.285 |
| GGAUAUGCUUGGUCGGGUATT against ATP6V1B2 | inactive: 0.24 |
| CACUGUACAUUUUCCGACATT against UBE2D1 | inactive: 0.508 |
| UGAGUGUUUUCACAUCUUUTT against NR2C2 | inactive: -0.498 |
| AGAUAGUGACGACAGCCUATT against NRCAM | inactive: -0.0304 |
| GGAUUUCACUGGCAAAGUGTT against WWOX | inactive: -0.583 |
| GGAGAUUCACGAGCUGCGATT against EGFL8 | inactive: 0.365 |
| GAGCGAGAAGAGUUCUAUATT against ATP6V1D | inactive: 0.594 |
| UGAUCAAUCGGAUUGAGAATT against STX4 | inactive: 0.759 |
| CAAUCUUACCAGGAGAUAATT against MOXD1 | inactive: -0.162 |
| CAAAUACCGUUAAGCUGGATT against HBA1 | active: -1.03 |
| GGAUUGAACUUUCGAAUUATT against KNG1 | inactive: 0 |
| CGAUGUCAGCAUUUCCGUUTT against EPRS | inactive: -0.391 |
| GCUUGUCACCGUUCGAGCATT against UQCRQ | inactive: 0.0241 |
| CUAUGCUACCCUCUACUUUTT against AP3S2 | inactive: 0.521 |

| Sequence | median seed-adjusted z-score |
| --- | --- |
| CAUAAAGUUAAAUCCCUUATT against KCNS2 | inactive: 0.0597 |
| GCAUUGAAAUUUCCAGCGATT against GABRP | inactive: -0.441 |
| GAUCUUUACGACAACCAGATT against PPP1R7 | inactive: 0.0505 |
| CCCUCGAAUUCGCAUAGAATT against DIS3 | inactive: 0.266 |
| GGAUGACAUGUCUAGCAUUTT against NXF1 | active: -4.46 |
| GCAUGCCCAUGACCAUGGUTT against ARHGAP27 | inactive: -0.777 |
| CAUUCACUGAGGCGACAGATT against ABCA9 | inactive: -0.139 |
| GCCCAGAAGUUUAUAGACATT against MYO7B | inactive: -0.167 |
| CCGGGACAGUGACAUCAUATT against ENDOD1 | inactive: -0.138 |
| CCAGGAACAAAUGACGAAATT against ZSWIM2 | inactive: -0.199 |
| GGAUCGUGAUUAAGAUCGATT against ZNF777 | inactive: 0.128 |
| GGAUGUUAGAUGUCUGGUATT against IL12RB2 | inactive: 0.368 |
| GGAACAACGUGGACCCAUATT against CAPN1 | inactive: 0.282 |
| GAGCGACUAAGAUAGAUCATT against POLQ | inactive: 0.203 |
| GGUUGGGAGCUGUAUCACATT against DMGDH | inactive: 0.0323 |
| GGUGUUACAGGCGAAAAUATT against POGZ | inactive: -0.376 |
| GGGUUUUGCUGGACACAGUTT against GNB2 | inactive: 0.561 |
| CAUCUCGACUUAUUGGAAATT against WEE1 | active: -4.05 |
| GCUUUAUCCUCAACGUGCUTT against GGT5 | inactive: 0.307 |
| GGGCGAGACUGUAAAGCGATT against PCBP4 | inactive: -0.269 |
| GCAUAAUGAAUACCCUAGATT against SCN9A | inactive: -0.581 |
| GGUUCGUGAAGUUCGUAAATT against UTP3 | active: -1.08 |
| CUGAGAAAAUUAGUCCGAATT against SLC39A6 | inactive: -0.262 |

As entered above:
Value of GGAGAUUCACGAGCUGCGATT against EGFL8 under median seed-adjusted z-score: inactive: 0.365
Value of CUUGCAAAAUGUACACGAATT against AS3MT under median seed-adjusted z-score: inactive: -0.74
Value of GCAUAGAACCAGUCAAUGATT against PGBD1 under median seed-adjusted z-score: inactive: 0.925
Value of GGAUGUUAGAUGUCUGGUATT against IL12RB2 under median seed-adjusted z-score: inactive: 0.368
